Reference: the supplement of paper PMC3334620
Whole data set: some 33,000 sequences, median “E-score (-0.5 to 0.5)” near -8e-05, cut for the highest 2% near 0.23. This is one part of the list.

molecular target: T1, Nrg2 (UniProt P38082); experiment: PBM E-score (8-mer binding enrichment) (E-score (-0.5 to 0.5)); higher = stronger / more preferred TF binding; conditions: protein concentration: 100 nM; construct: GST-full length
T1 sequence: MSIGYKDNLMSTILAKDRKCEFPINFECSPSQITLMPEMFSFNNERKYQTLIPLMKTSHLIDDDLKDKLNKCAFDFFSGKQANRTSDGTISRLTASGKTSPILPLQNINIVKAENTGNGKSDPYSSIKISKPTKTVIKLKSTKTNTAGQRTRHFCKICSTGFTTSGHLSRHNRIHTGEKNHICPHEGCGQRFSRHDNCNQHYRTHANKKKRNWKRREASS
Protocol: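 Universal 'all 10-mer' protein binding microarrays (Agilent AMADID 015681) probed with GST-tagged S. cerevisiae TFs (full-length or DBD) made by in vitro transcription/translation (PURExpress), about 100-200 nM. Bound TF was detected with fluorescent anti-GST. Each ungapped 8-mer (which stands for itself and its reverse complement) is scored by the PBM enrichment score (E-score), a modified Wilcoxon-Mann-Whitney statistic from -0.5 to +0.5, computed with the Universal PBM Analysis Suite. Scale: above 0.35 generally sequence-specific binding.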

Sequence	PBM E-score
CAAACTGA	0.0191
AATGGTAA	0.194
CGACCGCG	0.0511
ACACACCT	0.0665
GAAATAAA	0.0799
CGCCTGAG	-0.00578
GCACGGCC	0.00561
ATGGGACA	0.0686
ACTTACTC	0.00115
CATTAGAA	0.0605
ACATTAGC	-0.0364
ACTATGAT	0.161
CGCCCGTA	-0.272
CGCCTCGC	-0.0994
ATTTATAG	0.0419
AATGATCG	-0.156
AGCTTGTC	-0.0264
ACCACGAG	0.0501
CGGTATAA	0.0444
CGGTTAAC	-0.146
ATATCCTG	0.0232
AGGCCTAC	0.025
CGGGTTTC	0.0653
AAGCCGTG	-0.106
AACAGATT	-0.0386

Quoted at random: two records from the list.
Sequence	PBM E-score
ATTTATAG	0.0419
CGGGTTTC	0.0653

The list goes on.

Sequence	PBM E-score
GACCTCAC	-0.0708
CATCGTTA	-0.0234
ATTCATTA	0.134
CATTGTGG	-0.0117
TCCCAGCA	-0.082
GAGGGCCA	-0.0868
AAAACGCC	0.0808
GCTATCTA	-0.0754
ACCTCTTC	0.0127
CTGTTGCA	0.181
AGACTGGC	-0.303
AAAACACT	0.0319
CTTCACTC	0.0762
GGCTTACC	-0.111
CGTTAAGC	0.0258
CCAAGTAC	-0.0521
AACGAGAT	0.0961
AGGCCCTC	-0.11
GATTCTCA	0.183
AGAACGTC	0.0815
AGGGACGC	0.196
ACCTGCGC	0.0898
AGGCATCG	-0.125
GAGTCTGC	-0.28
AAGCTGTC	0.0317

Sequence	PBM E-score
CCCTAACA	0.205
GAACGTAA	0.196
CAGCCTTC	-0.149
ACGTTGGA	-0.138
AGTCCCGC	-0.0359
GTACTGGA	-0.0686
CACCTATA	-0.032
AGACGTCG	-0.151
GACGGTAA	-0.072
ACAAAGGA	0.0252
CAATTAGG	-0.035
CTCCAATA	0.0227
ATCGGCCG	-0.0992
GAAGCGAA	0.0512
AGTATCGG	0.0262
ACATTCGT	0.0155
ACAGACTG	-0.0142
TCACACGA	0.0745
ATGATTAA	0.0628
GCCCTGAC	-0.00086
TACACTGA	0.144
GTAAAGAC	0.136
CCCTCAAA	0.0328
ATTAATTC	0.229
AGGGATCA	0.184

Reformatted with bars between the fields: entries from further up.
Sequence | PBM E-score
CCCTCAAA | 0.0328
ATTAATTC | 0.229
AGGGATCA | 0.184

The results go on:

Sequence	PBM E-score
AGCAACCC	-0.153
GTGAGAAC	-0.0135
CACTGAGC	-0.0828
AACGGGGT	-0.123
AGAAAACA	-0.0691
ACAAATGC	0.084
CGGAAACC	-0.0945
AAAGGACA	0.0964
GTCATGGA	-0.0624
TAGCCGCA	-0.0795
CAGTCATA	-0.0949
TAGGGCAA	-0.12
ACCCGACC	-0.0948
GATCGACC	0.0374
CCGCTTGA	0.0233
GCGTGGCA	-0.137
AACAGGCG	-0.166
CAGTGTTA	0.147
ATAATGTA	0.122
CAGCTATG	-0.123
CATGGACA	0.00291
CTACCCAA	-0.0593
GTCGCGCA	-0.077
CATGTCCA	-0.0341
CTACAAAG	0.116

Sequence	PBM E-score
GATCAGAA	-0.0998
AGTGACAG	0.0722
ATACCCCG	0.0515
AAGGGCAA	0.153
CATTCAGC	-0.118
ACTCTACG	-0.0126
GAAGGACA	-0.00553
ACAGCGTA	-0.118
CAATCAAC	0.157
ACTTGTCG	0.059
GGAAACCA	-0.159
GGCCTGAA	-0.105
AAATGTAA	0.0932
AGTTTCTC	-0.0424
CCCGTAAG	-0.157
ACCATTTC	0.0439
AACCCATC	0.0091
ATGGACAT	0.0544
CCTCTTTA	-0.243
GTAGTGTA	0.024
CCTAGATC	0.0583
GCTAAAGC	-0.0297
ATTATTGG	-0.00344
ACTCTGCA	0.108
CGTACAGC	-0.171

Sequence	PBM E-score
CAGATCGG	-0.00992
GCGAGCCA	0.0283
ATCACCTG	0.0306
GGCAAGAC	-0.065
CGCCACCC	-0.239
TAAGTGAA	0.0844
GACCCAAA	0.0147
GTTATTCA	0.105
ATGCACTA	-0.0386
AGCGATAT	0.13
GCCCTCCC	-0.271
CCAATTGA	0.0132
CAAAATAC	0.0204
ACTGTATA	-0.00299
CTAGCGTC	-0.181
AGTGATCG	-0.0464
ATGAACGG	-0.0248
GTATAGAA	0.0955
CCATCAGA	0.00899
ACCTCAAC	0.0405
CAAAGAAC	-0.0376
CCCTCAAG	-0.172
AGGATCAC	0.067
CTCGGTGA	-0.169
CTGACGTA	-0.105

Sequence	PBM E-score
ACCAAACA	0.113
CACCACAG	0.0027
CCCTGACC	0.3
CGACTCTA	-0.0195
CCTACAAG	-0.187
GAGAGATA	0.0968
ATGATAGA	-0.0326
ACAGCCCC	-0.0265
CTCCCGAC	-0.203
AAGGCTTC	-0.122
GCGCAGAC	0.0533
CCTTTCAA	0.0566
CCAGAAGA	-0.0496
ACGCGATG	-0.00691
CGGTTCAG	-0.34
CAGAAATG	-0.0173
GGGTGAGA	-0.211
AAGTCGCG	-0.0145
AACGAGCG	0.0427
GATGCTCA	-0.12
AATCTGGC	-0.214
ATTCTGCG	0.193
